Reference: the supplement of paper PMC10849652
Some of the results follow.

By UniProt entry, the sequences of proteins in these tests, tags left out. Where a name states a change or a piece, a line headed by the entry shows the natural chain unless it says otherwise.
UniProt P50053: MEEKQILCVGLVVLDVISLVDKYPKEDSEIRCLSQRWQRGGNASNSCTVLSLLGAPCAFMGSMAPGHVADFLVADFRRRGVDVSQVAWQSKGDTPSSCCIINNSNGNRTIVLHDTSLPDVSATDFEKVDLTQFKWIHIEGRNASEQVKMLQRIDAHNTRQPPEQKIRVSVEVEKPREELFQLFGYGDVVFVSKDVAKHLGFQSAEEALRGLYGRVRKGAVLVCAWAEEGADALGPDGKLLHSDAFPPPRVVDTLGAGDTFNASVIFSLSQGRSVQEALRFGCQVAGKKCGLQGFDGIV
UniProt Q07666, whole entry, looked up: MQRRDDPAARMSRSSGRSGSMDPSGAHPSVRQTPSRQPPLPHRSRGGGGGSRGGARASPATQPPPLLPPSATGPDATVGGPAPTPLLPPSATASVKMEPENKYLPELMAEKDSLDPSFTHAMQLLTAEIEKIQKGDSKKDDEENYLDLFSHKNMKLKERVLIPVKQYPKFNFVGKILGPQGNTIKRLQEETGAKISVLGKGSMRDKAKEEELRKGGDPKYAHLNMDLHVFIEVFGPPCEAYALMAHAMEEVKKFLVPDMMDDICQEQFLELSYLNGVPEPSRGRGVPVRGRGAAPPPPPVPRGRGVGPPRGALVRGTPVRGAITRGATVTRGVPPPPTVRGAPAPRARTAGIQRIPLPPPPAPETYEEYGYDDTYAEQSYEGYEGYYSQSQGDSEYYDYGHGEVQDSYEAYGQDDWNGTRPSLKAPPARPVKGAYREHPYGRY
UniProt Q9NSK0: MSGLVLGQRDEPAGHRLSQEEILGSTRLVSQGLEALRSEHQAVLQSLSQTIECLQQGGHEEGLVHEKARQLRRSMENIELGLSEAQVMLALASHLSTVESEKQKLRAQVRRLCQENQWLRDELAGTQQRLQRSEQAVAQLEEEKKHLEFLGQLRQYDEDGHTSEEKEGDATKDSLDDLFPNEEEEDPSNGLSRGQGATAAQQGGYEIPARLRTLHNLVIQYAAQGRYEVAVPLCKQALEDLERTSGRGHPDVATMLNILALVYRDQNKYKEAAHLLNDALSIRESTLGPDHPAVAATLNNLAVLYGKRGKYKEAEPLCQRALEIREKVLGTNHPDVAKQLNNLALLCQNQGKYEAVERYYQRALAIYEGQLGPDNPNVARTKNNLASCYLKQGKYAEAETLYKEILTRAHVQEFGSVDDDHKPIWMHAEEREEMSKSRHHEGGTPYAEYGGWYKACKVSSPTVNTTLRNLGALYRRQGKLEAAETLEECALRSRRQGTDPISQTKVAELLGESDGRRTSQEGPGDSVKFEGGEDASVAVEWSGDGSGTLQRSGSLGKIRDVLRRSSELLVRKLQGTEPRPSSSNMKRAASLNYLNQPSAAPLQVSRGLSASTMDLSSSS
UniProt P13473: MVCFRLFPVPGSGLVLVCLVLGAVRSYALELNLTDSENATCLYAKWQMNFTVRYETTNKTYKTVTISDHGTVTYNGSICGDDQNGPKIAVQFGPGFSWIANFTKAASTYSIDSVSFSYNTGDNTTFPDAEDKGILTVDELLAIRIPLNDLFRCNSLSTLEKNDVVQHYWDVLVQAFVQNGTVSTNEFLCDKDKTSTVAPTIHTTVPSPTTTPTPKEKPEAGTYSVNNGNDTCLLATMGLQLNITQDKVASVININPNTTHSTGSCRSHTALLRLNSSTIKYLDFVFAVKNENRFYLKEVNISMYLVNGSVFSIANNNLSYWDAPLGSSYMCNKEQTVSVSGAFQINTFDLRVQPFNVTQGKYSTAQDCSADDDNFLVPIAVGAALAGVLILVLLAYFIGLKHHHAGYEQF
UniProt Q8N371: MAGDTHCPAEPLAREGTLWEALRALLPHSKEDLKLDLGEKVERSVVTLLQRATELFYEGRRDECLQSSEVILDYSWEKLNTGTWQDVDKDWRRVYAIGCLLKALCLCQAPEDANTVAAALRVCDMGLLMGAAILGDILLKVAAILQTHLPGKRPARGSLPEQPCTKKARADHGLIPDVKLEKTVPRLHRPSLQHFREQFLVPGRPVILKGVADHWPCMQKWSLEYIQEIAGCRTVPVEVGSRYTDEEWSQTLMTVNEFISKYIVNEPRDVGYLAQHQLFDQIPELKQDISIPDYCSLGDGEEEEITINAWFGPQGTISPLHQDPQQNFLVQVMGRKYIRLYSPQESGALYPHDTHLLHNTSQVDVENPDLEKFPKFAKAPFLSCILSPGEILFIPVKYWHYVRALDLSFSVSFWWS
UniProt Q9Y2Q5, whole entry, looked up: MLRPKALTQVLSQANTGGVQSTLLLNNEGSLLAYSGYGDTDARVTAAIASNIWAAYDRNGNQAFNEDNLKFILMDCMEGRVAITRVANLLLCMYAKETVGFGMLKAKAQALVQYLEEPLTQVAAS
UniProt Q02241: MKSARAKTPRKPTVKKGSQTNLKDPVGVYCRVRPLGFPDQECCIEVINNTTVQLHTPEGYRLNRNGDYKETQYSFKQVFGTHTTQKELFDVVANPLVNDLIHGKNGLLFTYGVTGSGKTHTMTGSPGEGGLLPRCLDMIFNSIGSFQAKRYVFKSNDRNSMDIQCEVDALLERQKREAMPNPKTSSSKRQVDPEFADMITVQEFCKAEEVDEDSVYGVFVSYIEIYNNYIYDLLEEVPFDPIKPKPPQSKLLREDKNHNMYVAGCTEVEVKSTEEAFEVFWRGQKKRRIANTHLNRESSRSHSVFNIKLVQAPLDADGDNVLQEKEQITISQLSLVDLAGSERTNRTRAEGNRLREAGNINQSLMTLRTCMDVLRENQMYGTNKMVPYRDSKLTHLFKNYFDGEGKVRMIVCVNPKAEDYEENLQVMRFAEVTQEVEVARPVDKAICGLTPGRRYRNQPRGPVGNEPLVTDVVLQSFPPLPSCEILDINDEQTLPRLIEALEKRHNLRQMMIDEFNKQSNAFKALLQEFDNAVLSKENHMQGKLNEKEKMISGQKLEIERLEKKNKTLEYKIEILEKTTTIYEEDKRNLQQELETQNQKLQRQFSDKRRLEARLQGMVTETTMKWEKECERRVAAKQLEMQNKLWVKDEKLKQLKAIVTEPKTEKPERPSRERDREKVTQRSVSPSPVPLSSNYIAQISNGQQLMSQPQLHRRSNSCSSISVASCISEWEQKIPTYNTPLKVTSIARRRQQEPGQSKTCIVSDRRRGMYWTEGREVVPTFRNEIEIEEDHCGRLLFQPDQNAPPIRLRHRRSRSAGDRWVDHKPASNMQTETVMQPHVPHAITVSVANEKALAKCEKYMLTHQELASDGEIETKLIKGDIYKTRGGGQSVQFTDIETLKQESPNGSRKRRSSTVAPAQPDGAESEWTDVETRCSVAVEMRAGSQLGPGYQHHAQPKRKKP
UniProt Q12840: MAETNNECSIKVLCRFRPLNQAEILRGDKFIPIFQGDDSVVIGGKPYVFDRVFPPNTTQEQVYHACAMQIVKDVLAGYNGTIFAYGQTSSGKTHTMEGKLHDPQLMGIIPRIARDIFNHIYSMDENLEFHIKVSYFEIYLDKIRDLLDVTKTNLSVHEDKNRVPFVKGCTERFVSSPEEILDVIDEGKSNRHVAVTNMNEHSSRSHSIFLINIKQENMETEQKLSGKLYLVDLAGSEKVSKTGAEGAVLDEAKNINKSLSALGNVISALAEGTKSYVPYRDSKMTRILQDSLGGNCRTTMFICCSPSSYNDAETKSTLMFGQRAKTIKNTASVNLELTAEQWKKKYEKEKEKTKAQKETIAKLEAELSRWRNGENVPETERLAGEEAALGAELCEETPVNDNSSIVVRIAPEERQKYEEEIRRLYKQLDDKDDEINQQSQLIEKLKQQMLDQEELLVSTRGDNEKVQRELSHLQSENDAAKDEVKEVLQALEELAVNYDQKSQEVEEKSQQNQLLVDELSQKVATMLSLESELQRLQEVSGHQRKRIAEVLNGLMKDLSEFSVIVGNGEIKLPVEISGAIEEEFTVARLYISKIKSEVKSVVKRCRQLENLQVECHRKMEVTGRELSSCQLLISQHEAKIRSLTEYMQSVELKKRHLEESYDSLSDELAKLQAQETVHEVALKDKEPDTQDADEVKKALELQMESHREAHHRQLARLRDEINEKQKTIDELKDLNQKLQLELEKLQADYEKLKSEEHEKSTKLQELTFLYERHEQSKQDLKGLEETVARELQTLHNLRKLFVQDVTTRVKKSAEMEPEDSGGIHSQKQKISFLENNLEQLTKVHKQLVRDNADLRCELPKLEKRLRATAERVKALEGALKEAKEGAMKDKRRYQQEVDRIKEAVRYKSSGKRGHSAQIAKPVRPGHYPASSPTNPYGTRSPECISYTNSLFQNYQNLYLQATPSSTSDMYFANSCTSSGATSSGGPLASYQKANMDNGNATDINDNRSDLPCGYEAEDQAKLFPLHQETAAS
UniProt Q9H0B6: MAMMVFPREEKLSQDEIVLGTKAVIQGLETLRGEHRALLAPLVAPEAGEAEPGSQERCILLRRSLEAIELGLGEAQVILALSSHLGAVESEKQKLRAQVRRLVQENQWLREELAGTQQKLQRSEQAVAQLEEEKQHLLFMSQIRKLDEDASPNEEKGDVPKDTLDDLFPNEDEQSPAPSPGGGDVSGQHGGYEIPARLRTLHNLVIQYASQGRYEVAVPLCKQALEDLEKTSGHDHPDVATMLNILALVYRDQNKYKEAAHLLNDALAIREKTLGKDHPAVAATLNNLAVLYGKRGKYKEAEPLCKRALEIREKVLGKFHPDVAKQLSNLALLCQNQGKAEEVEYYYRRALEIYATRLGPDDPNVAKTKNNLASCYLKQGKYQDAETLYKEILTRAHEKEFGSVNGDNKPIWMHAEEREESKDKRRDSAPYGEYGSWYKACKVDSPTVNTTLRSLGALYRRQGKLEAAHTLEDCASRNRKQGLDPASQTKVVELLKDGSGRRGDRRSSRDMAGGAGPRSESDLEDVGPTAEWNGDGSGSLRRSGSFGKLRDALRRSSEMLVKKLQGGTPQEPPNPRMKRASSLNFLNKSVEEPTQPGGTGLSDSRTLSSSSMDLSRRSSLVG
UniProt Q9Y448: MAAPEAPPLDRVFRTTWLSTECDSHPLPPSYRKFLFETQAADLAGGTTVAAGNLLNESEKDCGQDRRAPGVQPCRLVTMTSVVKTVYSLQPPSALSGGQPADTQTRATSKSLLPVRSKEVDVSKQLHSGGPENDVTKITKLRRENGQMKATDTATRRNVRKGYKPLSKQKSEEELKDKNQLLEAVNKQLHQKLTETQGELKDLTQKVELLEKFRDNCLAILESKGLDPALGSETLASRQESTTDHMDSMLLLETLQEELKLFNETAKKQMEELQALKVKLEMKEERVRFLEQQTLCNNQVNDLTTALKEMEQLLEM
UniProt A5PL33: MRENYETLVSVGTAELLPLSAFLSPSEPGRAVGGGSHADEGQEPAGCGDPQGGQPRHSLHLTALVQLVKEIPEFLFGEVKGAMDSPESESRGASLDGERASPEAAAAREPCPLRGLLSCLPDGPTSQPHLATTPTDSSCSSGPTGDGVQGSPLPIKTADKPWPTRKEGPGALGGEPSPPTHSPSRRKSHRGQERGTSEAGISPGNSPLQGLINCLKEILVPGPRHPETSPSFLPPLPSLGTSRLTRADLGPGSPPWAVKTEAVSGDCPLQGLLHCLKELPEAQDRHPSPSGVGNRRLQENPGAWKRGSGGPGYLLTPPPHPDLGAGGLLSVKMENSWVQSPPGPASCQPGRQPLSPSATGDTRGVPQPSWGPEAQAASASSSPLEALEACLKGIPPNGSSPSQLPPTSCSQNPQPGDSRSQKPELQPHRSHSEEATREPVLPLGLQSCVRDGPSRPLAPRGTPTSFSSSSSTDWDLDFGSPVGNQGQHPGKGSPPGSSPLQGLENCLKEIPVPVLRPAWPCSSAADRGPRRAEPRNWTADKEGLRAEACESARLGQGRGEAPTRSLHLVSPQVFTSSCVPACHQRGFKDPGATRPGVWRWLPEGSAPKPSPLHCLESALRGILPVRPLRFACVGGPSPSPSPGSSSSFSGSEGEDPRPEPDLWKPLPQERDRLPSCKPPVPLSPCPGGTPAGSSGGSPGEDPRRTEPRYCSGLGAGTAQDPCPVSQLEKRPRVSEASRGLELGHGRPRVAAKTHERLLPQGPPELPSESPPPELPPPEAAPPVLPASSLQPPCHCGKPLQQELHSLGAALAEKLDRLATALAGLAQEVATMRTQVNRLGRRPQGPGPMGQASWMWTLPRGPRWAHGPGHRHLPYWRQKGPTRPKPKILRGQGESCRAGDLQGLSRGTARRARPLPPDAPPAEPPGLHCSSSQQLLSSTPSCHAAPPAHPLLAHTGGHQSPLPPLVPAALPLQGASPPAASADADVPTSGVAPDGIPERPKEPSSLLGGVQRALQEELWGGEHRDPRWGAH
UniProt Q9BQD3: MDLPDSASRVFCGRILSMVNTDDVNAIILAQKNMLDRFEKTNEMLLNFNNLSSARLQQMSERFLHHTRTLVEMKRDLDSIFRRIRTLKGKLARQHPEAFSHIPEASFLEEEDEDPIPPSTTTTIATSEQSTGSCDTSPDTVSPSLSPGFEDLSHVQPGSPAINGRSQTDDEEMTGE

compound: C[C@@H](Oc1cc(-c2cnn(C3CCNCC3)c2)cnc1N)c1c(Cl)ccc(F)c1Cl [crizotinib]; experiment: log2 fold change, soluble protein after heating vs DMSO (PISA); higher = thermal stabilisation; K562 lysate, 10 uM; active = over 0.2 and 3.5 SD of the protein, either way, in both replicates (recomputed)
Summary of the method: (§1)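 K562 pellets were dounce-homogenised in PBS pH 7.4 containing 1 mM MgCl2, and the crude extract, at 1 mg/mL protein, was exposed to 10 μM compound for 30 min. Aliquots were heated for 3 min across 48°C-58°C, pooled, brought to 0.5% NP-40 at 4°C and spun at 21,000xg for 90 min, with the supernatant taken as soluble protein. TMTpro 16plex LC-MS/MS with equalised channel sums quantified that protein. Values are log-two fold changes in thermal stability relative to solvent controls, taken from duplicates.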

| Target | log2 fold change |
| --- | --- |
| LAMTOR1 (UniProt Q6IAA8) | inactive: 0.007 |
| KHK isoform 2 (UniProt P50053) | inactive: -0.032 |
| KNL1 (UniProt Q8NG31) | inactive: -0.015 |
| LAMB1 (UniProt P07942) | inactive: 0 |
| KIF4A (UniProt O95239) | inactive: -0.043 |
| KHDRBS1 (UniProt Q07666) | inactive: 0.025 |
| L1RE1 (UniProt Q9UN81) | inactive: 0.007 |
| LARP7 isoform 3 (UniProt Q4G0J3) | inactive: -0.009 |
| KLC4 isoform 3 (UniProt Q9NSK0) | inactive: -0.027 |
| L2HGDH (UniProt Q9H9P8) | inactive: -0.015 |
| KSR1 (UniProt Q8IVT5) | inactive: -0.015 |
| KIAA0930 isoform 2 (UniProt Q6ICG6) | inactive: -0.067 |
| LACTB2 (UniProt Q53H82) | inactive: 0.022 |
| LANCL1 (UniProt O43813) | inactive: 0.001 |
| LAMP2 (UniProt P13473) | inactive: 0.04 |
| KHSRP (UniProt Q92945) | inactive: 0.092 |
| KDM8 isoform 3 (UniProt Q8N371) | inactive: -0.022 |
| KLHL18 (UniProt O94889) | inactive: -0.139 |
| KPTN (UniProt Q9Y664) | inactive: -0.054 |
| KIF15 (UniProt Q9NS87) | inactive: -0.017 |

| Target | log2 fold change |
| --- | --- |
| KYAT3 (UniProt Q6YP21) | inactive: 0 |
| KIF3A (UniProt Q9Y496) | inactive: 0.088 |
| KTI12 (UniProt Q96EK9) | inactive: -0.157 |
| LAMTOR2 (UniProt Q9Y2Q5) | inactive: -0.067 |
| KIF5B (UniProt P33176) | inactive: 0.007 |
| KIF23 isoform 2 (UniProt Q02241) | inactive: -0.002 |
| KPNA1 (UniProt P52294) | inactive: -0.039 |
| KPNA3 (UniProt O00505) | inactive: -0.012 |
| KPNA2 (UniProt P52292) | inactive: -0.063 |
| LAMTOR5 (UniProt O43504) | inactive: 0.019 |
| KNOP1 (UniProt Q1ED39) | inactive: -0.068 |
| KIF5A (UniProt Q12840) | inactive: 0.014 |
| KDM5B isoform 2 (UniProt Q9UGL1) | inactive: -0.02 |
| KIAA1191 (UniProt Q96A73) | inactive: 0.035 |
| KLC2 (UniProt Q9H0B6) | inactive: -0.047 |
| KIF13A isoform 4 (UniProt Q9H1H9) | inactive: -0.001 |
| KNSTRN (UniProt Q9Y448) | inactive: 0.029 |
| KRBA1 (UniProt A5PL33) | inactive: -0.104 |
| KXD1 (UniProt Q9BQD3) | inactive: -0.031 |

compound: C[C@H](C1=CC=C(C=C1)C(=O)NC2=C3C=CNC3=NC=C2)N; experiment: as above
Summary of the method: as §1

| Target | log2 fold change |
| --- | --- |
| LAMTOR1 (UniProt Q6IAA8) | inactive: 0.023 |
| KHK isoform 2 (UniProt P50053) | active: 0.248 |
| KNL1 (UniProt Q8NG31) | inactive: -0.011 |
| LAMB1 (UniProt P07942) | inactive: 0.024 |
| KIF4A (UniProt O95239) | inactive: 0.012 |
| KHDRBS1 (UniProt Q07666) | inactive: 0.046 |
| L1RE1 (UniProt Q9UN81) | inactive: -0.041 |
| LARP7 isoform 3 (UniProt Q4G0J3) | inactive: 0.009 |
| KLC4 isoform 3 (UniProt Q9NSK0) | inactive: 0.019 |
| L2HGDH (UniProt Q9H9P8) | inactive: -0.028 |
| KSR1 (UniProt Q8IVT5) | inactive: 0.006 |
| KIAA0930 isoform 2 (UniProt Q6ICG6) | inactive: -0.121 |
| LACTB2 (UniProt Q53H82) | inactive: -0.047 |
| LANCL1 (UniProt O43813) | inactive: -0.036 |
| LAMP2 (UniProt P13473) | inactive: -0.123 |
| KHSRP (UniProt Q92945) | inactive: 0.016 |
| KDM8 isoform 3 (UniProt Q8N371) | inactive: -0.04 |
| KLHL18 (UniProt O94889) | inactive: -0.098 |
| KPTN (UniProt Q9Y664) | inactive: -0.097 |
| KIF15 (UniProt Q9NS87) | inactive: 0 |

| Target | log2 fold change |
| --- | --- |
| KYAT3 (UniProt Q6YP21) | inactive: -0.158 |
| KIF3A (UniProt Q9Y496) | inactive: 0.047 |
| KTI12 (UniProt Q96EK9) | inactive: -0.049 |
| LAMTOR2 (UniProt Q9Y2Q5) | inactive: -0.108 |
| KIF5B (UniProt P33176) | inactive: 0.051 |
| KIF23 isoform 2 (UniProt Q02241) | inactive: -0.019 |
| KPNA1 (UniProt P52294) | inactive: -0.014 |
| KPNA3 (UniProt O00505) | inactive: -0.139 |
| KPNA2 (UniProt P52292) | inactive: -0.001 |
| LAMTOR5 (UniProt O43504) | inactive: 0.008 |
| KNOP1 (UniProt Q1ED39) | inactive: 0.004 |
| KIF5A (UniProt Q12840) | inactive: 0.01 |
| KDM5B isoform 2 (UniProt Q9UGL1) | inactive: -0.003 |
| KIAA1191 (UniProt Q96A73) | inactive: 0.048 |
| KLC2 (UniProt Q9H0B6) | inactive: 0.025 |
| KIF13A isoform 4 (UniProt Q9H1H9) | inactive: -0.023 |
| KNSTRN (UniProt Q9Y448) | inactive: 0.065 |
| KRBA1 (UniProt A5PL33) | inactive: 0.089 |
| KXD1 (UniProt Q9BQD3) | inactive: 0.069 |
